Data on one substance can be found in publication PMC7862291, “Full-length in meso structure and mechanism of rat kynurenine 3-monooxygenase inhibition” (Communications Biology, 2021).

Sequences of proteins named here, by UniProt entry; tags and fusion partners are left off.
UniProt O15229: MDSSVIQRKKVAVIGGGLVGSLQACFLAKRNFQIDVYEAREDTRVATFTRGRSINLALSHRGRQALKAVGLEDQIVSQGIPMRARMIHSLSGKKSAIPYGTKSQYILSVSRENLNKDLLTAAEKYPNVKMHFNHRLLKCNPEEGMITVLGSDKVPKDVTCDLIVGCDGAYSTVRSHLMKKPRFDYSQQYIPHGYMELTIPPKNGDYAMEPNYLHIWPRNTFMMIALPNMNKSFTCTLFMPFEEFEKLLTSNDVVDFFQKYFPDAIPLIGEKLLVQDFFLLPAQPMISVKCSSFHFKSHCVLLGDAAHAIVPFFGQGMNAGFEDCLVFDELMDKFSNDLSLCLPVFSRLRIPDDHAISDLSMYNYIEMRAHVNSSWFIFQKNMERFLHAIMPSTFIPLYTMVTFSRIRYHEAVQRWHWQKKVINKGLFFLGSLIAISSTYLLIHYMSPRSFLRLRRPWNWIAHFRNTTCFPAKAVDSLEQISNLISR

No constants are given. Whether binding was seen depends on the method and setting. Binding seen in cells or lysates may run through a third protein. Some results given as binding are weak or reduced against the parent protein; the word gives no strength.

In this experiment the target is wild type human KMO (Hs-KMO), NanoBRET constructs (human) (UniProt O15229). The experiment in a line: FRET or BRET; NanoBRET in HEK293T cells; HaloTag-KMO (NanoBRET 618 ligand) and NLuc-KMO co-transfected; donor 460 nm, acceptor 620 nm.

In the case of “wild type human KMO (Hs-KMO), NanoBRET constructs (from UniProt O15229 1-486) (enzyme)”, the binding entry is “binds”.
